Results from PubChem BioAssay AID493014 (National Center for Advancing Translational Sciences (NCATS), 2011).
The other results are listed elsewhere or left out. These are further read-outs of the screen, such as a control signal, another cell line or another target. No call is given for them. Most of these compounds were active or inconclusive in the main read-out, so they are no random draw. Potencies come from curve fits of mixed quality, noted in brackets.

Assay: qHTS Assay to Find Inhibitors of Chronic Active B-Cell Receptor Signaling
Details: ABC-DLBCL IkBa-CBG/CBR reporter, luminescence ratio (green luciferase fused to IkBa over red control in TMD8 lymphoma cells), 4 h
Procedure, shortened: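 TMD8 ABC-DLBCL cells carrying doxycycline-inducible green luciferase fused to IkappaBalpha plus unfused red luciferase were exposed to compounds (up to 46 uM) for 4 hrs at 37C. Activity came from the overlap-corrected green/red luminescence ratio.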

[1] = measured here: CBR red luminescence, cell number
[2] = measured here: IkBa-CBG green luminescence

SMILES | AC50 [1] | AC50 [2]
CCOC(=O)Cc1csc(NC(NC(=O)CC)(C(F)(F)F)C(F)(F)F)n1 | 15.8 µM [falling, single point] | 
O=C1c2sc3nc4ccccc4n3c2C(=O)N1c1ccccc1Cl | 4.11 µM [falling, partial curve] | 
CCOc1cc(/C=C(\CC(=O)O)c2nc3ccccc3s2)ccc1OC | 3.16 µM [rising, partial curve, poor fit] | 
CSCCC(NC(N)=O)C(=O)NCc1ccccc1Cl (stereo not given) | 29.1 µM [falling, single point] | 
Cc1ccc(C)c(CN2CCC(CNC(=O)Nc3ccc(Cl)cc3)CC2)c1 | 7.94 µM [rising, partial curve, poor fit] | 
Cc1cccc(-n2cc(-c3ccccc3)c3c(N4CCOCC4)ncnc32)c1 | 1.12 µM [rising, full curve, poor fit] | 
CSc1nnc(-c2ccc(S(=O)(=O)N3CCOCC3)cc2)n1CC1CCCO1 (stereo not given) | 23.1 µM [rising, single point] | 32.6 µM [falling, partial curve, poor fit]
COc1ccccc1/C=C/C=N/NC(=O)c1cccs1 | 0.447 µM [falling, full curve, poor fit] | 
c1ccc(CCn2nnnc2CN2CCN(C3CCCC3)CC2)cc1 | 6.51 µM [falling, single point] | 
COc1ccc(NC(=O)CCCSc2nc(-c3ccco3)cc(C(F)(F)F)n2)cc1OC | 0.517 µM [rising, full curve, poor fit] | 
Cn1c(=O)c2c(nc(SCCNS(=O)(=O)c3ccccc3)n2C)n(C)c1=O | 7.94 µM [falling, partial curve, poor fit] | 
CSc1ccc(/C=C/C(=O)c2ccc(NC(C)=O)cc2)cc1 | 20.6 µM [falling, single point] | 
O=C(O)CC1S/C(=N/N=C/c2ccc(-c3ccccc3[N+](=O)[O-])o2)NC1=O (stereo not given) | 23.1 µM [falling, partial curve, poor fit] | 
COc1ccccc1/C=N/NC(=O)c1ccc(Br)cc1 | 15.8 µM [falling, partial curve, poor fit] | 
COc1ccc(CNC(=O)C2CCCN(S(=O)(=O)c3cccc4nsnc34)C2)cc1 (stereo not given) | 15.8 µM [falling, partial curve, poor fit] | 
C[C@H](CO)N1C[C@H](C)[C@@H](CN(C)S(C)(=O)=O)Oc2ccc(NC(=O)CCN3CCOCC3)cc2C1=O | 25.9 µM [rising, partial curve, poor fit] | 
COc1ccc(OC)c(Nc2nc(-c3cccs3)cs2)c1 | 32.6 µM [falling, single point] | 
O=C(NCCN1CCN(C(=O)c2cccc(OC(F)F)c2)CC1)c1cccc(OC(F)F)c1 | 2.91 µM [rising, partial curve] | 
O=C(Nc1ccc2c(c1)nc1n2CCOC1)c1ccco1 | 11.2 µM [falling, partial curve, poor fit] | 
N#CC/C(N)=N/NC(=O)CCCNc1ncc(C(F)(F)F)cc1Cl | 35.5 µM [falling, single point] | 
CN(C)CCNc1ncnc2c1cnn2-c1cccc(Cl)c1 | 20 µM [falling, single point] | 

SMILES | AC50 [1] | AC50 [2]
COc1ccc(CCNC(=O)CSc2nnnn2-c2ccc(OC)c(OC)c2)cc1OC | 8.91 µM [rising, single point] | 
CCOC(=O)c1c(C)n(C)c2ccc(O)c(CN3CCC(C)CC3)c12 | 0.731 µM [falling, partial curve, poor fit] | 
Oc1[nH]c2ccccc2c1N=Nc1c(F)c(F)c(C(F)(F)F)c(F)c1F | 0.501 µM [rising, full curve, poor fit] | 
CC(=O)Nc1cccc(C(=O)OCC(=O)NC(=O)c2ccccc2)c1 | 29.1 µM [rising, partial curve, poor fit] | 
O=C1c2ccccc2C(=O)N1OCCOCCOCCON1C(=O)c2ccccc2C1=O | 29.1 µM [rising, single point] | 
CCN(C(=O)CSc1ncnc2sc(C)c(C)c12)C1CCS(=O)(=O)C1 (stereo not given) | 35.5 µM [falling, single point] | 
Cc1c(C(=O)Nc2ccc(C(=O)O)cc2)nnn1-c1ccccc1 | 2.82 µM [falling, full curve] | 
Cc1ccc(N=Nc2c(O)[nH]c(=O)[nH]c2=O)cc1S(=O)(=O)Nc1ccc(Br)cc1 | 16.4 µM [falling, partial curve, poor fit] | 
c1ccc(CC2CCN(c3nc4ccccc4n4cnnc34)CC2)cc1 | 3.26 µM [rising, full curve] | 
O=C(CC1Nc2ccccc2NC1=O)Nc1ccc2c(c1)OCO2 (stereo not given) | 17.8 µM [falling, partial curve, poor fit] | 
O=C(Nc1cc(Cl)ccc1Oc1ccccc1)c1ccccc1F | 18.4 µM [rising, partial curve, poor fit] | 
Cc1cccc2cc(C#N)c(NCCNS(=O)(=O)c3ccc4c(c3)OCCO4)nc12 | 22.4 µM [falling, single point] | 
O=C(O)c1cccc(N/N=C/c2ccc(F)c(F)c2)c1 | 35.5 µM [falling, partial curve, poor fit] | 
N#Cc1ccccc1OCC(=O)NCC1(N2CCCCC2)CCCCC1 | 12.6 µM [falling, partial curve] | 
c1ccc(-c2nnc(NC3=NCCC3)o2)cc1 | 8.91 µM [falling, partial curve] | 
O=c1[nH]cnc2cc(-c3ccccc3)sc12 | 17.8 µM [falling, single point] | 
CCC(C)Sc1nc2c(c(=O)[nH]c(=O)n2C)n1C (stereo not given) | 35.5 µM [rising, partial curve, poor fit] | 
CN(C)/C=N/c1nc(-c2ccc3c(c2)OCO3)cs1 | 6.31 µM [rising, single point] | 
N#Cc1ccc(/C=N/NC(=O)c2cc(-c3cccs3)nc3ccccc23)cc1 | 18.4 µM [rising, partial curve] | 
COc1ccc(NC(=O)CN2C(=O)COc3ccc(S(=O)(=O)N4CCCCCC4)cc32)cc1 | 3.98 µM [falling, partial curve, poor fit] | 
Cc1sc(NC(=O)/C=C/c2ccco2)c(C(=O)O)c1C | 1.58 µM [falling, full curve] | 

4 of the compounds above, in CSV form:
SMILES,AC50 [1],AC50 [2]
O=C1c2ccccc2C(=O)N1OCCOCCOCCON1C(=O)c2ccccc2C1=O,"29.1 µM [rising, single point]",
O=C(O)c1cccc(N/N=C/c2ccc(F)c(F)c2)c1,"35.5 µM [falling, partial curve, poor fit]",
O=c1[nH]cnc2cc(-c3ccccc3)sc12,"17.8 µM [falling, single point]",
COc1ccc(NC(=O)CN2C(=O)COc3ccc(S(=O)(=O)N4CCCCCC4)cc32)cc1,"3.98 µM [falling, partial curve, poor fit]",

(further entries)

SMILES | AC50 [1] | AC50 [2]
O=C1c2cccc3cccc(c23)C(=O)N1CC1CCN(S(=O)(=O)c2ccc(F)cc2)CC1 | 3.66 µM [rising, partial curve, poor fit] | 
C=CCn1c(N)c(C(=O)NC2CCCCC2)sc1=S | 13 µM [falling, partial curve, poor fit] | 
Cc1ccc(NS(=O)(=O)c2c(C)[nH]c(=O)[nH]c2=O)c(Br)c1 | 7.94 µM [rising, partial curve, poor fit] | 
Cc1ccc2nc(/C(C#N)=C/c3ccc(-c4cccc([N+](=O)[O-])c4)o3)[nH]c2c1 | 29.1 µM [rising, partial curve, poor fit] | 
CC(C)(CC(=O)N1CCN(c2ccc(Cl)cc2)CC1)CC1=NS(=O)(=O)c2ccccc2N1 | 35.5 µM [falling, single point] | 
CCOC(=O)CN1CC23C=CC(O2)C(C(=O)NCc2cccs2)C3C1=O (stereo not given) | 32.6 µM [rising, partial curve, poor fit] | 
CCOc1ccccc1N(CC(=O)NCCc1ccc(OC)c(OC)c1)S(=O)(=O)c1ccccc1 | 31.6 µM [rising, single point] | 35.5 µM [falling, single point]
COc1ccc(NC(=O)c2cc(-c3ccc(C)cc3)on2)cc1 | 1.41 µM [falling, full curve] | 
O=C(c1ccco1)N1CCN(CC(O)Cn2c3ccccc3c3ccccc32)CC1 (stereo not given) | 6.51 µM [falling, single point] | 
Cc1cc(NC(=O)CCN2CCN(Cc3ccccc3)CC2)ccc1Br | 3.55 µM [rising, single point] | 
COc1ccc(CN2CCN(c3cccc(C)c3C)CC2)cc1OC | 14.6 µM [rising, single point] | 
CCCCCc1c(C)c(C#N)c2nc3ccccc3n2c1-n1ccnc1C | 5.01 µM [rising, single point] | 
Cc1ccc(SCC(=O)Nc2ccc(C(=O)Nc3ccc(O)cc3)cc2)cc1 | 35.5 µM [rising, partial curve, poor fit] | 
CC(=O)N(c1ccccc1)C1CC(C)N(C(=O)c2ccccc2)c2ccccc21 (stereo not given) | 12.6 µM [falling, partial curve, poor fit] | 
COC(=O)c1cc(CNC(=O)c2cccc(Cl)c2)ccc1OC | 1.46 µM [rising, full curve, poor fit] | 
CCN(CC(=O)Nc1c(F)cccc1F)C(=O)CCCc1c[nH]c2ccccc12 | 11.2 µM [falling, partial curve] | 
CCN(CC)C(=O)c1[nH]cnc1C(=O)Nc1ccc(Cl)cc1 | 0.731 µM [rising, partial curve, poor fit] | 
O=C(CCN1CCOCC1)c1ccc(N2CCCCC2)cc1 | 20.6 µM [falling, single point] | 20.6 µM [rising, partial curve, poor fit]
CCOC(=O)Cn1c(=S)[nH]c2c(oc3ccc(Cl)cc32)c1=O | 0.146 µM [rising, full curve, poor fit] | 
Oc1[nH]c2ccccc2c1N=Nc1ccccc1 | 35.5 µM [falling, single point] | 
